Like-named read-outs stand apart in the source and are kept apart here. No constants are given. Whether binding was seen depends on the method and setting. In cells and extracts the contact can be indirect. These calls come from enrichment with a bait or labelling near it, and not all partners need be listed. For some of these results: A no says only that the protein was not detected with the bait. For some of these results: Sequences can lack the tags named with a protein.
T1: GFP-DCP2 (Arabidopsis thaliana) (UniProt Q8GW31)
T1 sequence: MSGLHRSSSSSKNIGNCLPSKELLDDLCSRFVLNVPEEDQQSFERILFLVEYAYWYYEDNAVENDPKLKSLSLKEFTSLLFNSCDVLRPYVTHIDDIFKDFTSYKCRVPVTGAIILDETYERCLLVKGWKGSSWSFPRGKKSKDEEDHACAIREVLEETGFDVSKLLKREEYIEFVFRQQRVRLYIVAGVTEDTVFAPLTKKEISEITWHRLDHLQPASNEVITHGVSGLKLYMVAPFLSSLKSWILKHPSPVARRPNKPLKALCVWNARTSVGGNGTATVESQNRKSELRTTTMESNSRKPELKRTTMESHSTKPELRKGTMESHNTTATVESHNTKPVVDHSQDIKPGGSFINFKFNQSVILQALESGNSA

Sequences of proteins named here, by UniProt entry; tags and fusion partners are left off. A change or cut given only in a name is not applied to a line headed by its entry.
UniProt Q9SJF3: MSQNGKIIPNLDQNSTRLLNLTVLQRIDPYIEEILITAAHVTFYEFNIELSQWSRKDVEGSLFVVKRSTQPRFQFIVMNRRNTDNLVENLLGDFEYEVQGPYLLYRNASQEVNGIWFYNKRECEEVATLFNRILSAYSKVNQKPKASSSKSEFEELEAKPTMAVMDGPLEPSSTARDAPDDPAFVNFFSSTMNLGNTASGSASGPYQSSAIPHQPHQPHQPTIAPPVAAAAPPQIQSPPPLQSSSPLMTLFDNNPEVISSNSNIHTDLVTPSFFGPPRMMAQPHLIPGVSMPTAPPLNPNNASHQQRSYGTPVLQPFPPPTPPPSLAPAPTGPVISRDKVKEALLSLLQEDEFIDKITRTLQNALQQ
UniProt Q9M2F9: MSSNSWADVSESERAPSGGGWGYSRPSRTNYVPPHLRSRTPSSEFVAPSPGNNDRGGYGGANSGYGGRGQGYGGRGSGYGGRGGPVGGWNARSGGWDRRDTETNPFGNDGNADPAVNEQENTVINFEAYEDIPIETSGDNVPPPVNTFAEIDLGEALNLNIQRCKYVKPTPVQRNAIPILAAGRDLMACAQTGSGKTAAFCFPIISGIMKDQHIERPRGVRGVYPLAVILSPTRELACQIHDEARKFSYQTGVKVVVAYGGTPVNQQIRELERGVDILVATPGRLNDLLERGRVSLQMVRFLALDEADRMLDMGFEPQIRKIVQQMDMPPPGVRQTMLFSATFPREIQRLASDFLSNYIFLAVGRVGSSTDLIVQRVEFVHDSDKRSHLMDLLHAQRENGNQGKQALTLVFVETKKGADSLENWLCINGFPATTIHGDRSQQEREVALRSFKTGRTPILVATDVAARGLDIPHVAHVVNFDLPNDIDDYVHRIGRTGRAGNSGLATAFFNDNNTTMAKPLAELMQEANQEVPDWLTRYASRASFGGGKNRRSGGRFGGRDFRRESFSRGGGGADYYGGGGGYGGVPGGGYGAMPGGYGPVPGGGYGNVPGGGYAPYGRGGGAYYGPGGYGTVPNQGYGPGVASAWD

B1: VARICOSE (VCS) (protein, UniProt Q9LTT8 1-1344)
chain: MASSPGNTNPHNTPPFDLGILFKPSSNPYPPPAASYPPPTGPFLHNQYDQQHYAPPGISAQPSPVTQQQQDVSSSSAATNLHPQRTLSYPTPPLNLQSPRSNHNPGTHILALLNNTNNGAPVANQEPSHQLPVVNHNEIARSFPGGSGPIRVPSCKLPKGRRLIGEHAVYDVDVRLQGEIQPQLEVTPITKYGSDPQLVVGRQIAVNKVYICYGLKGGNIRVLNINTALRSLFRGHSQRVTDMAFFAEDVDMLASVSLDGKVFVWKISEGSEGEDQPQITGKIVLALQILGEEDTKHPRVCWHCHKQEILVVSIGKHVLRIDTTKVGRGEVFSAEAPLQCPLDKLIDGVQIVGKHDGEVTDLSMCQWMTTRLVSSSVDGTIKIWQDRKAQPLVVLRPHDGHPVSSATFVTSPERPDHIILITGGPLNREMKIWVSAGEEGWLLPADAESWRCTQTLDLKSSTEPRAEEAFFNQVIALSEAGLLLLANAKRNALYAVHLDYGSSPVGTRMDYLSEFTVTMPILSFIGTNDPPEEPIVKVYCVQTLAIQQYTLDLCLCLPPPIENMGLEKSDSSVSREANLVEGMSEPSGLKPTDLPSVDSVPKPSIIVNRSESANKLSFPSAEATSQAIVPPNGEPKTSGLPSQTSGAGSAYATLPQLPLSPRLSSKLSGYHTPVEAIEPVIPHHELGGKTPSADYSVDRQMDAVGERNLDVSSVEEISRSKDSNVTPDDDVSGMRSPSAFFKHPTHLVTPSEILMGVSSAEASITTEDRRDRDANIQDVNNDPRDTEVEVKEISEARSTQNGEINDHDETENCTSENREKVFCSQVSNLSTEMARDCYPSTEGTFIPGESKAYGQPIKAGDESGVDSRGGPAKLLKGKKQKAKNSQGPGLSSTSSNVANLADSFNEQSQSLSHPMTDLLPQLLAMQETMNQVMASQKEMQRQLSNAATGPIGKESKRLEVALGRMIEKSSKSNADALWARIQEETVKNEKALRDHAQQIVNATTNFMSKELNAMFEKTIKKELAAIGPALARSVVPVIEKTVSSAITESFQRGIGDKAVNQLDKSVNIKLEATVARQIQAQFQTSGKQALQEGLRSSVESSVIPSFEKACKAMFDQIDSAFQKGIAEHTNAAQQRFDSGHSQLAHTLKESITSASSVAQALSRELAETQRNLLALAAAGANSGGSNSLVTQLSGGPLGALLEKVEAPMDPTTELSRLISERKYEESFTSALQRSDVSIVSWLCSQVDLRGLLAMNPLPLSQGVLLSLLQQLACDISKDTSRKLAWMTDVVAAINPSDQMIAVHARPIFEQVYQILHHHRNAPGSDVSAIRLIMHVINSMLMGCK
B2: UPF1 (protein, UniProt Q9FJR0 1-1254)
chain: MDSQQSDLFDTASQPDTVADEYTFLEFNTQGDSEFDYQDFGSPTAWPTPSDSISIADVADRGEGGAAADHHSEASSPSSLSAGAGNGAKVGRGGVGGSGGVSSSSQVDALAAGVGNLNFEETGDDDGFDYGKNDFTEHACKYCGISNPACVVRCNVASCRKWFCNSRGNTSGSHIVNHLVRAKHKEVCLHRDSPLGETILECYNCGCRNVFLLGFISAKTDSVVVLLCRDPCLNVNALKDMNWDLSQWCPLIDDRCFLPWLVKVPSEQEQLRARQISAQQINKIEELWKTNPDATLEDLEKPGVDDEPQPVQPKYEDAYQYQNVFAPLIKLEADYDKMMKESQSKENLTVRWDIGLNKKRVAYFVFPKEENELRLVPGDELRLRYSGDAVHPSWQSVGHVIKLTAQEEVALELRANQGVPIDVNHGFSVDFVWKSTSFDRMQGAMKNFAVDETSVSGYIYHQLLGHEVEAQMVRNTLPRRFGVPGLPELNASQVNAVKSVLQKPISLIQGPPGTGKTVTSAAIVYHMAKQGQGQVLVCAPSNVAVDQLAEKISATGLKVVRLCAKSREAVSSPVEYLTLHYQVRHLDTSEKSELHKLQQLKDEQGELSSSDEKKYKNLKRATEREITQSADVICCTCVGAADLRLSNFRFRQVLIDESTQATEPECLIPLVLGVKQVVLVGDHCQLGPVIMCKKAARAGLAQSLFERLVTLGIKPIRLQVQYRMHPALSEFPSNSFYEGTLQNGVTIIERQTTGIDFPWPVPNRPMFFYVQLGQEEISASGTSYLNRTEAANVEKLVTAFLKSGVVPSQIGVITPYEGQRAYIVNYMARNGSLRQQLYKEIEVASVDSFQGREKDYIILSCVRSNEHQGIGFLNDPRRLNVALTRARYGIVILGNPKVLSKQPLWNGLLTHYKEHECLVEGPLNNLKQSMVQFQKPRKIYNDRRLFYGGGAGMIGNDNFGSGNPNADRRGSRGRAGGSYLPSGPPNGARPGLHPAGYPIPRVPLSPFPGGPPSQPYAIPTRGPVGAVPHAPQPGNHGFGAGRGTSVGGHLPHQQATQHNVGTIGPSLNFPLDSPNSQPSPGGPLSQPGYGSQAFRDGFSMGGISQDFLADDIKSQGSHDPYNMADFATQASPGGFAVDYATQGAHGAFPGNFMNQNSQGGYSRFSGINDFMSQEYMAHGGQGLFTQAGFIDSSQDDGQQNPYGVNNPNLQSQGLPNSLYSQPFAHYNTQPLNLSGPQQSQPNQSSQNPKHPYNG
B3: RH6 (protein, UniProt Q94BV4 1-528)
chain: MNNNNNNRGRFPPGIGAAGPGPDPNFQSRNPNPPQPQQYLQSRTPFPQQPQPQPPQYLQSQSDAQQYVQRGYPQQIQQQQQLQQQQQQQQQQQEQQWSRRAQLPGDPSYIDEVEKTVQSEAISDSNNEDWKATLKLPPRDNRYQTEDVTATKGNEFEDYFLKRDLLRGIYEKGFEKPSPIQEESIPIALTGSDILARAKNGTGKTGAFCIPTLEKIDPENNVIQAVILVPTRELALQTSQVCKELSKYLKIEVMVTTGGTSLRDDIMRLYQPVHLLVGTPGRILDLAKKGVCVLKDCAMLVMDEADKLLSVEFQPSIEELIQFLPESRQILMFSATFPVTVKSFKDRYLKKPYIINLMDQLTLMGVTQYYAFVEERQKVHCLNTLFSKLQINQSIIFCNSVNRVELLAKKITELGYSCFYIHAKMVQDHRNRVFHDFRNGACRNLVCTDLFTRGIDIQAVNVVINFDFPRTSESYLHRVGRSGRFGHLGLAVNLVTYEDRFKMYQTEQELGTEIKPIPSLIDKAIYCQ
B4: RH8 (protein, UniProt Q8RXK6 1-505)
chain: MNNRGRYPPGIGAGRGAFNPNPNYQSRSGYQQHPPPQYVQRGNYAQNHQQQFQQAPSQPHQYQQQQQQQQQWLRRGQIPGGNSNGDAVVEVEKTVQSEVIDPNSEDWKARLKLPAPDTRYRTEDVTATKGNEFEDYFLKRELLMGIYEKGFERPSPIQEESIPIALTGRDILARAKNGTGKTAAFCIPVLEKIDQDNNVIQAVIIVPTRELALQTSQVCKELGKHLKIQVMVTTGGTSLKDDIMRLYQPVHLLVGTPGRILDLTKKGVCVLKDCSVLVMDEADKLLSQEFQPSVEHLISFLPESRQILMFSATFPVTVKDFKDRFLTNPYVINLMDELTLKGITQFYAFVEERQKIHCLNTLFSKLQINQSIIFCNSVNRVELLAKKITELGYSCFYIHAKMLQDHRNRVFHDFRNGACRNLVCTDLFTRGIDIQAVNVVINFDFPKNAETYLHRVGRSGRFGHLGLAVNLITYEDRFNLYRIEQELGTEIKQIPPHIDQAIYCQ
B5: RH12 (protein, UniProt Q9M2E0 1-498)
chain: MNTNRGRYPPGVGTGRGAPPNPDYHQSYRQQQPPQDQQYVQRGYSQNPQQMQLQQQHQQQQQQQQWSRRPQLPGNASNANEVVQQTTQPEASSDANGQDWKATLRLPPPDTRYQTADVTATKGNEFEDYFLKRDLLKGIYEKGFEKPSPIQEESIPIALTGSDILARAKNGTGKTGAFCIPVLEKIDPNNNVIQAMILVPTRELALQTSQVCKELSKYLNIQVMVTTGGTSLRDDIMRLHQPVHLLVGTPGRILDLTKKGVCVLKDCAMLVMDEADKLLSAEFQPSLEELIQFLPQNRQFLMFSATFPVTVKAFKDRHLRKPYVINLMDQLTLMGVTQYYAFVEERQKVHCLNTLFSKLQINQSIIFCNSVNRVELLAKKITELGYSCFYIHAKMVQDHRNRVFHEFRNGACRNLVCTDLFTRGIDIQAVNVVINFDFPRTSESYLHRVGRSGRFGHLGLAVNLVTYEDRFKMYQTEQELGTEIKPIPSNIDQAIYCQ
B6: PAT1 (protein, UniProt Q0WPK4 1-793)
chain: MDAFGIGSSLNQAPVTQDLKKFGDNSTGNTMFDASQYAFFGNDVVEEVELGGLEEEDEILSFTGIAEDFSFDKEEVGDSRLLSDVDDLASTFSKLNREPDVYSNTGPITDRRSSQNSLAAEWTHGEELPNWYGRQILDSDAIKDDKVWSAQPFSSLDRVEQRIPDRTKLYPEPQRQLHQDHNQQQFSSEPILVPKSSFVSYPPPGSISPDQRLGHPNIPYQSGGPQMGSPNFSPFPNLQPQLPSMHHGSPQHTGNRPQFRPALPLNNLPPAQWMNRQNMHPGDSSGIMNNAMLQQPPHQNGLMPPQMQGSQNRLPHPMQPPLGHMPGMQPQLFNSHLSRSSSSGNYDGMLGFGDLREVRPGSGHGNRQNVRFPQQGFDAGVQRRYPFRSKYMSAGEIENILRMQLVATHSNDPYVDDYYHQACLAKKSAGAKLKHHFCPNHLRDLQQRARSNNEPHAFLQVEALGRVPFSSIRRPRPLLEVDPPNSAKFGNAEHKPTDKPLDQEPMLAARVYIEDGLCLLLEVDDIDRFLEFNQLQDGGHQLKQRRQALLQSLAVSLQLGDPLAKNGQSQSLDDFLFLRVISLPKGRKLLIRYLQLIFPGSDLMRIVCMAIFRHLRSLFGVLSSDPDIIKTTNKLATVINLCIQNMELGPVSTCLAAVSCSSEQAPLRPLGSPVGDGASTVLKSILDRASELIRANNFNNAGIALWRASFNEFFNMLMRYCISKYDSIMQSLQLPPHFATEISEEAAKAIVREMPIELLRSSFPHIDEQQKRILMEFLKRSMLGSQKTEPVLS

Legend:
Test in all cases: affinity purification with mass spectrometry
[1] = target: T1, GFP-DCP2 (Arabidopsis thaliana)
[2] = target: T1, GFP-DCP2 (Arabidopsis thaliana); remark: listed apart in the source
[3] = target: YFP-DCP1 (Arabidopsis thaliana) (UniProt Q9SJF3)
[4] = target: GFP-DNE1 (Arabidopsis thaliana)
[5] = target: GFP-DNE1 (Arabidopsis thaliana); remark: listed apart in the source

| Molecule | binding [1] | binding [2] | binding [3] | binding [4] | binding [5] |
| --- | --- | --- | --- | --- | --- |
| DCP1-ASSOCIATED NYN ENDORIBONUCLEASE 1 (DNE1) | no binding | no binding |  |  |  |
| RH52 (from UniProt Q9M2F9 1-646) |  |  | binds |  |  |
| B1 |  | binds | binds | binds |  |
| B2 |  | binds |  | binds | binds |
| B3 |  | binds | binds |  |  |
| B4 |  | binds | binds |  |  |
| B5 |  | binds | binds |  |  |
| B6 |  | binds |  |  |  |
